# Assay results: the supplement of paper PMC5355238
# Several values for one entry are separate records, joined by “and”; a condition that tells them apart may be missing. Equal values may be shown once. Where a name gives a salt, the structure may show the parent alone. The list shows a part of the results. Most values lie at the level of the controls, where differences are scatter.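 Reh, a human leukemia cell line, is read out by flow cytometry as the median γH2AX antibody signal in S-phase cells; the score counts standard deviations from the median difference of each paired plate set. Scores above 2.5 were candidate hits; scores below -2 mark compounds lowering MK1775-induced damage.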
# Tested on: Reh
# Experiment: Z' of S-phase gammaH2AX difference (drug + MK1775 minus drug alone) (Z-score); higher = stronger synergistic S-phase DNA damage with MK1775
# Details: MK1775 concentration 400 nM; first compound 10 µM; 4 h
row,SMILES,Z' of S-phase gammaH2AX difference (Z-score)
1,C[C@@H]1CCN(C(=O)CC#N)C[C@@H]1N(C)c1ncnc2[nH]ccc12 + C=CCn1c(=O)c2cnc(Nc3ccc(N4CCN(C)CC4)cc3)nc2n1-c1cccc(C(C)(C)O)n1 [MK1775],inactive: 0.15 and inactive: 0.984
2,Nc1nc2ccc(Cl)cc2c2nc(-c3ccco3)nn12 + C=CCn1c(=O)c2cnc(Nc3ccc(N4CCN(C)CC4)cc3)nc2n1-c1cccc(C(C)(C)O)n1 [MK1775],inactive: 0.605
3,COc1cc2c(cc1C(F)(F)F)N(C(=O)Nc1cc(F)cc(-c3cccnc3)c1)CC2 + C=CCn1c(=O)c2cnc(Nc3ccc(N4CCN(C)CC4)cc3)nc2n1-c1cccc(C(C)(C)O)n1 [MK1775],inactive: 0.819
4,CCC(C)N(C)C(=O)c1cc2ccccc2c(-c2ccccc2Cl)n1 (stereo not drawn) + C=CCn1c(=O)c2cnc(Nc3ccc(N4CCN(C)CC4)cc3)nc2n1-c1cccc(C(C)(C)O)n1 [MK1775],inactive: 0.511
5,COc1ccc(CCN(C)CCCC(C#N)(c2cc(OC)c(OC)c(OC)c2)C(C)C)cc1OC (stereo not drawn) [(?)-Methoxyverapamil hydrochloride] + C=CCn1c(=O)c2cnc(Nc3ccc(N4CCN(C)CC4)cc3)nc2n1-c1cccc(C(C)(C)O)n1 [MK1775],inactive: 0.961
6,CC[C@H](C)C(=O)O[C@H]1CCC=C2C=C[C@H](C)[C@H](CC[C@@H]3C[C@@H](O)CC(=O)O3)[C@H]21 [Mevastatin] + C=CCn1c(=O)c2cnc(Nc3ccc(N4CCN(C)CC4)cc3)nc2n1-c1cccc(C(C)(C)O)n1 [MK1775],inactive: 0.184
7,CCn1cc(C(=O)O)c(=O)c2ccc(Cc3ccccc3)nc21 [Amfonelic acid] + C=CCn1c(=O)c2cnc(Nc3ccc(N4CCN(C)CC4)cc3)nc2n1-c1cccc(C(C)(C)O)n1 [MK1775],inactive: 2.34
8,NNc1nncc2ccccc12 [Hydralazine hydrochloride] + C=CCn1c(=O)c2cnc(Nc3ccc(N4CCN(C)CC4)cc3)nc2n1-c1cccc(C(C)(C)O)n1 [MK1775],inactive: -0.26
9,C=CC(=O)Nc1cccc(Oc2nc(Nc3ccc(N4CCN(C)CC4)cc3OC)ncc2Cl)c1 + C=CCn1c(=O)c2cnc(Nc3ccc(N4CCN(C)CC4)cc3)nc2n1-c1cccc(C(C)(C)O)n1 [MK1775],inactive: -0.363
10,O=C(/C=C/c1ccc(O)c(O)c1)OCCc1ccccc1 [Caffeic acid phenethyl ester] + C=CCn1c(=O)c2cnc(Nc3ccc(N4CCN(C)CC4)cc3)nc2n1-c1cccc(C(C)(C)O)n1 [MK1775],inactive: 0.692
11,CN1CCN(CCCN2c3ccccc3Sc3ccc(Cl)cc32)CC1 [Prochlorperazine dimaleate] + C=CCn1c(=O)c2cnc(Nc3ccc(N4CCN(C)CC4)cc3)nc2n1-c1cccc(C(C)(C)O)n1 [MK1775],inactive: -0.369
12,CN(C)C[C@@H]1CCn2cc(c3ccccc32)C2=C(C(=O)NC2=O)c2cn(c3ccccc23)CCO1 + C=CCn1c(=O)c2cnc(Nc3ccc(N4CCN(C)CC4)cc3)nc2n1-c1cccc(C(C)(C)O)n1 [MK1775],inactive: 0.289
13,Cc1c(C)c2c(c(C)c1O)CCC(C)(CN1CCN(c3cc(N4CCCC4)nc(N4CCCC4)n3)CC1)O2 (stereo not drawn) + C=CCn1c(=O)c2cnc(Nc3ccc(N4CCN(C)CC4)cc3)nc2n1-c1cccc(C(C)(C)O)n1 [MK1775],inactive: 0.475
14,CC(=O)[C@]1(O)Cc2c(O)c3c(c(O)c2[C@@H](O[C@H]2C[C@H](N)[C@H](O)[C@H](C)O2)C1)C(=O)c1ccccc1C3=O [Idarubicin HCl] + C=CCn1c(=O)c2cnc(Nc3ccc(N4CCN(C)CC4)cc3)nc2n1-c1cccc(C(C)(C)O)n1 [MK1775],inactive: -1.04
15,CC(=O)[C@]1(O)Cc2c(O)c3c(c(O)c2[C@@H](O[C@H]2C[C@H](N)[C@H](O)[C@H](C)O2)C1)C(=O)c1ccccc1C3=O [Idarubicin] + C=CCn1c(=O)c2cnc(Nc3ccc(N4CCN(C)CC4)cc3)nc2n1-c1cccc(C(C)(C)O)n1 [MK1775],inactive: 2.31
16,Cn1ccc2cc(NC(=O)Nc3cccnc3)ccc21 + C=CCn1c(=O)c2cnc(Nc3ccc(N4CCN(C)CC4)cc3)nc2n1-c1cccc(C(C)(C)O)n1 [MK1775],inactive: -0.21
17,CS(=O)(=O)N1CCc2c(-c3cnc(N)nc3)nc(N3CCOCC3)nc21 + C=CCn1c(=O)c2cnc(Nc3ccc(N4CCN(C)CC4)cc3)nc2n1-c1cccc(C(C)(C)O)n1 [MK1775],inactive: -0.0584
18,COc1ccc(C2CNC(=O)C2)cc1OC1CCCC1 (stereo not drawn) [Rolipram] + C=CCn1c(=O)c2cnc(Nc3ccc(N4CCN(C)CC4)cc3)nc2n1-c1cccc(C(C)(C)O)n1 [MK1775],inactive: -0.771
19,O=c1c(O)c(-c2ccc(O)cc2O)oc2cc(O)cc(O)c12 [Morin] + C=CCn1c(=O)c2cnc(Nc3ccc(N4CCN(C)CC4)cc3)nc2n1-c1cccc(C(C)(C)O)n1 [MK1775],inactive: 0.859
20,CC(/C=C/c1cccc(Oc2ccc(F)cc2)c1)N(O)C(N)=O (stereo not drawn) + C=CCn1c(=O)c2cnc(Nc3ccc(N4CCN(C)CC4)cc3)nc2n1-c1cccc(C(C)(C)O)n1 [MK1775],inactive: -0.712
21,CC(=O)Nc1nc(C)c(-c2ccc(Cl)c(S(=O)(=O)NCCO)c2)s1 + C=CCn1c(=O)c2cnc(Nc3ccc(N4CCN(C)CC4)cc3)nc2n1-c1cccc(C(C)(C)O)n1 [MK1775],inactive: -0.178
22,Cc1ccc([N+](=O)[O-])cc1S(=O)(=O)N(C)C + C=CCn1c(=O)c2cnc(Nc3ccc(N4CCN(C)CC4)cc3)nc2n1-c1cccc(C(C)(C)O)n1 [MK1775],inactive: -0.0802
23,CC(C)C[C@H](NP(=O)(O)O[C@H]1O[C@H](C)[C@@H](O)[C@H](O)[C@@H]1O)C(=O)N[C@@H](Cc1c[nH]c2ccccc12)C(=O)O [Phosphoramidon disodium] + C=CCn1c(=O)c2cnc(Nc3ccc(N4CCN(C)CC4)cc3)nc2n1-c1cccc(C(C)(C)O)n1 [MK1775],inactive: -0.199

# Copied from the list:
# Value of CC(=O)[C@]1(O)Cc2c(O)c3c(c(O)c2[C@@H](O[C@H]2C[C@H](N)[C@H](O)[C@H](C)O2)C1)C(=O)c1ccccc1C3=O [Idarubicin HCl] + C=CCn1c(=O)c2cnc(Nc3ccc(N4CCN(C)CC4)cc3)nc2n1-c1cccc(C(C)(C)O)n1 [MK1775] under Z' of S-phase gammaH2AX difference (Z-score): inactive: -1.04
# Value of CC(=O)Nc1nc(C)c(-c2ccc(Cl)c(S(=O)(=O)NCCO)c2)s1 + C=CCn1c(=O)c2cnc(Nc3ccc(N4CCN(C)CC4)cc3)nc2n1-c1cccc(C(C)(C)O)n1 [MK1775] under Z' of S-phase gammaH2AX difference (Z-score): inactive: -0.178
